These are yes or no findings as the source states them, for the method shown. Binding calls can cover weak binding; strength is not graded here.
Molecular target: NtKRP fragment including both phosphorylation sites (1–2262 bp), pGBKT7 fusion (Nicotiana tabacum)
Assay: two-hybrid; Matchmaker GAL4 system; NtKRP fragments in pGBKT7-Rec, CDKA;1 in pGADT7-Rec; yeast AH109 co-transformed; growth on SD/-Leu/Trp/His/Ade

binding: binds
Substance: CDKA;1, pGADT7 fusion (from UniProt Q40482) (enzyme)

Source: publication PMC5078848, “NtKRP, a kinesin-12 protein, regulates embryo/seed size and seed germination via involving in cell cycle progression at the G2/M transition” (Scientific Reports, 2016)
